From US7816325B2, “Secondary binding site of dipeptidyl peptidase IV (DP IV)” (OSI Pharmaceuticals, Inc., priority 2003, dated 2010)
At least one structure is not confirmed: it was looked up by name or label, or the drawing left a doubt. Where a SMILES comes first, the peptide text is derived from it. The star is where a group is joined. X1 = C1CN(*)CS1

By UniProt entry, the sequences of proteins in these tests, tags left out. Residues count along the entry.
UniProt P27487, 37-766: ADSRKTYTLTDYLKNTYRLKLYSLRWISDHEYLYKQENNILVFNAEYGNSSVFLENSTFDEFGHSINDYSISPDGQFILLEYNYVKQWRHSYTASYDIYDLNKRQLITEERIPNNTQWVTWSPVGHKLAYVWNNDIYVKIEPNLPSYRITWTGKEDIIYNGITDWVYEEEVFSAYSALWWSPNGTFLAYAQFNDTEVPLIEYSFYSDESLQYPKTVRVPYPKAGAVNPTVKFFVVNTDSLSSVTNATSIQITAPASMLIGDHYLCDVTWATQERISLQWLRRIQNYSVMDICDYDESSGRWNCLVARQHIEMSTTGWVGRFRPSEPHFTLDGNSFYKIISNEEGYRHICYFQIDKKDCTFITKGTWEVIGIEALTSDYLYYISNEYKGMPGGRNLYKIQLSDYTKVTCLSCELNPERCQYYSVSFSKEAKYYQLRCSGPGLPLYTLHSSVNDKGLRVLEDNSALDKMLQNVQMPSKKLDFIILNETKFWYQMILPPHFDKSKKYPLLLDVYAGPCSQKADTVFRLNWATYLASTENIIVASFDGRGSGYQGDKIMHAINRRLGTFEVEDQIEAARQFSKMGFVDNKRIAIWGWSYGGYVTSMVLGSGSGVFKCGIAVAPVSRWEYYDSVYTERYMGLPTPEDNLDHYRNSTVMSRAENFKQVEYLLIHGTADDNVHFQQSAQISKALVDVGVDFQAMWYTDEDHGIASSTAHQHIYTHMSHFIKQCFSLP

Target: T1, recombinant human DP IV, wild type (Homo sapiens, UniProt P27487)
T1 construct: His6 (N); made in house; host or cells: Pichia pastoris X-33 (vector pPICαC, secreted into the medium)
Assay: Ki in competition to standard substrate GP-4NA
Format: biochemical
Settings: rh wt DP IV; competition to GP-4NA
Method: In order to measure the inhibition constant Ki a photometric assay was used The peptides were measured as competitors of the standard substrate GP-4-Nitroanilide. Three different substrate concentrations (0.4 mM to 0.05 mM) were combined with 8 different competitor concentrations (0.5 mM to 2 μM). […] Experiments were carried out under standard conditions: 30° C. in pH 7.6 40 mM HEPES (Sigma-Aldrich) buffer. Nitroaniline production was monitored using a HTS 7000+ microplate reader (PerkinElmer, Überlingen, Germany).

For CC(C)C[C@H](NC(=O)[C@H](CCCNC(=N)N)NC(=O)[C@@H](N)CCCNC(=N)N)C(=O)N[C@@H](CO)C(=O)N[C@@H](Cc1ccc(O)cc1)C(=O)N[C@@H](CO)C(=O)N[C@@H](CCCNC(=N)N)C(=O)N[C@@H](CCCNC(=N)N)C(=O)N[C@@H](CCCNC(=N)N)C(=O)N[C@@H](Cc1ccccc1)C(=O)N[C@@H](CCC(=O)O)C(=O)N1CCSC1 [Transp 01] (H-RRLSYSRRRFE-X1; N-terminus assumed), the Ki was 50.8 nM.
